In patent US20100196929A1, “STABILISATION OF THE PHENOTYPIC PROPERTIES OF ISOLATED PRIMARY CELLS” (Vrije Universiteit Brussel, priority 2007, published 2010):
At least one structure is not confirmed: it was looked up by name or label, or the drawing left a doubt.

Test system: EGF-stimulated adult primary rat hepatocytes
Experiment: DNA synthesis ([methyl-3H]-thymidine incorporation) in EGF-stimulated hepatocytes
Assay type: cell-based
Settings: 25 μM 4-Me2N-BAVAH alone; 72 hours
Protocol: Hepatocytes (viability >80%) were isolated from male Sprague-Dawley rats by a two-step collagenase perfusion. Cells (0.4×10^5 cells/cm^2) were cultured in MEM/M199 (3:1, v/v), containing 1 mg/ml BSA, 5 μg/ml bovine insulin, 2 mM L-glutamine, antibiotics (7.3 IU/ml benzyl penicillin, 50 μg/ml streptomycin sulphate, 50 μg/ml kanamycin monosulphate and 10 μg/ml sodium ampicillin) and 10% (v/v) fetal calf serum.
After 4 h, medium was removed and serum-free medium, containing 0.5 μg/ml hydrocortisone and 50 μg/ml EGF, was added and renewed daily.
DAC was dissolved in PBS, 4-Me2N-BAVAH and AN-8 were dissolved in ethanol, to a concentration of 100 mM for DAC and 4-Me2N-BAVAH and 25 mM for AN-8. […]
DNA replication was measured as incorporation of radioactively labeled thymidine into newly synthesized DNA. […] The pellet was solved in formic acid and radioactively labeled thymidine was measured by liquid scintillation counting.
From the moment of seeding, adult primary rat hepatocytes, stimulated with EGF 4 hours after plating and constantly thereafter, were exposed to different concentrations of 4-Me2N-BAVAH (10 μM, 15 μM, 20 μM, 25 μM and 50 μM), AN-8 (1 μM, 2.5 μM and 5 μM) or DAC (1 μM, 10 μM, 50 μM, 100 μM, 250 μM and 500 μM). [methyl-3H]-Thymidine incorporation was measured at 72 hours. […]
[methyl-3H]-Thymidine incorporation was measured at 72 hours.

Structure (SMILES): CN(C)c1ccc(C(=O)NCCCCC(=O)NO)cc1 [4-Me2N-BAVAH, 5-(4-dimethylaminobenzoyl)-aminovaleric acid hydroxamide]
- inhibition of DNA replication: 64.7-24.8
